PubChem BioAssay AID743121 | NCATS, 2013
Here is one part, drawn at random, of about 26,000 deposited reagents. 167 of them (0.63%) were called active. 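Calls are per gene from RSA p-values that are not deposited; an individual active-marked siRNA can sensitise only weakly.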 Entries without a mark were called inactive. The numbers tell different reagents against one gene apart. Not all columns of the deposit are shown. Reagent sequences are not shown.

Screen: 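Partners whose loss is lethal together with topoisomerase I blockade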 (primary screen)
Cells: MDA-MB-231 cells, a human breast cancer line
Reagents: single siRNA against human genes, 20 nM siRNA (0.8 pmol per well)
Time to read-out: 120 h (drug added 48 h after transfection, read 72 h later)
Treatment: camptothecin 20 nM (about EC30) for 72 h; vehicle 0.1% DMSO in parallel plates
Measured: 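CellTiter-Glo ATP signal, scaled to control siRNA as percent viability; sensitisation given as log2 of untreated divided by camptothecin-treated viability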
Reading the numbers: log2 vehicle/camptothecin viability: higher = stronger sensitisation to camptothecin; viability with camptothecin: higher = more viable cells
Rule for the call: 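Active genes have an RSA gene-level p-value below 0.001, computed from the ratios of their separate siRNAs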

gene | reagent | log2 vehicle/camptothecin viability | viability with camptothecin (% of control)
CNKSR1 (connector enhancer of kinase suppressor of Ras 1) | 1 | -0.328 | 72
CNKSR1 (connector enhancer of kinase suppressor of Ras 1) | 2 | 0.626 | 26.6
CNKSR1 (connector enhancer of kinase suppressor of Ras 1) | 3 | -0.376 | 86.7
CNKSR1 (connector enhancer of kinase suppressor of Ras 1) | 4 | -0.613 | 102
TOPORS | 1 | -0.196 | 113
TOPORS | 2 | -0.316 | 82.3
TOPORS | 3 | 0.019 | 48.1
TOPORS | 4 | -0.399 | 60.4
CCNG1 (cyclin G1) | 1 | -0.109 | 100
CCNG1 (cyclin G1) | 2 | 0.3 | 78
CCNG1 (cyclin G1) | 3 | -0.19 | 86.6
CCNG1 (cyclin G1) | 4 | -0.124 | 81.1
PPP2R5E (protein phosphatase 2 regulatory subunit B'epsilon) | 1 | -0.195 | 125
PPP2R5E (protein phosphatase 2 regulatory subunit B'epsilon) | 2 | -0.244 | 101
PPP2R5E (protein phosphatase 2 regulatory subunit B'epsilon) | 3 | -0.0204 | 107
PPP2R5E (protein phosphatase 2 regulatory subunit B'epsilon) | 4 | -0.302 | 104
GDF5 (growth differentiation factor 5) | 1 | -0.276 | 77.3
GDF5 (growth differentiation factor 5) | 2 | -0.185 | 75.3
GDF5 (growth differentiation factor 5) | 3 | -0.199 | 58.2
GDF5 (growth differentiation factor 5) | 4 | -0.447 | 52.5
SLC6A8 | 1 | 0.707 | 33.5
SLC6A8 | 2 | -0.409 | 84.1
SLC6A8 | 3 | 0.0566 | 98.5
MLLT1 (MLLT1 super elongation complex subunit) | 1 | 1.11 | 27.7
MLLT1 (MLLT1 super elongation complex subunit) | 2 | -0.0437 | 64.4
MLLT1 (MLLT1 super elongation complex subunit) | 3 | -0.283 | 63.8
MLLT1 (MLLT1 super elongation complex subunit) | 4 | -0.104 | 55
LOXL3 (lysyl oxidase like 3) | 1 | -0.211 | 81.9
LOXL3 (lysyl oxidase like 3) | 2 | -0.303 | 78.7
LOXL3 (lysyl oxidase like 3) | 3 | -0.598 | 82.2
DEGS1 (delta 4-desaturase, sphingolipid 1) | 1 | 0.724 | 53.7
DEGS1 (delta 4-desaturase, sphingolipid 1) | 2 | -0.417 | 105
DEGS1 (delta 4-desaturase, sphingolipid 1) | 3 | -0.0205 | 55.9
DEGS1 (delta 4-desaturase, sphingolipid 1) | 4 | 0.0227 | 76.4
DLL3 (delta like canonical Notch ligand 3) | 1 | 0.12 | 47.5
DLL3 (delta like canonical Notch ligand 3) | 2 | -0.0706 | 87.8
NOTCH2 (notch receptor 2) | 1 | -0.388 | 69.4
NOTCH2 (notch receptor 2) | 2 | -0.449 | 114
NOTCH2 (notch receptor 2) | 3 | -0.0927 | 109
NOTCH2 (notch receptor 2) | 4 | -0.245 | 66.9
OR10A4 (olfactory receptor family 10 subfamily A member 4) | 1 | 0.376 | 42.1
OR10A4 (olfactory receptor family 10 subfamily A member 4) | 2 | -0.152 | 63.9
OR10A4 (olfactory receptor family 10 subfamily A member 4) | 3 | 0.65 | 33.4
OR10A4 (olfactory receptor family 10 subfamily A member 4) | 4 | -0.165 | 58.8
UHRF2 (ubiquitin like with PHD and ring finger domains 2) | 1 | -0.134 | 17.5
UHRF2 (ubiquitin like with PHD and ring finger domains 2) | 2 | -0.515 | 113
UHRF2 (ubiquitin like with PHD and ring finger domains 2) | 3 | -0.119 | 83.6
OR4C6 (olfactory receptor family 4 subfamily C member 6) | 1 | -0.163 | 116
OR4C6 (olfactory receptor family 4 subfamily C member 6) | 2 | -0.0524 | 80.9
OR4C6 (olfactory receptor family 4 subfamily C member 6) | 3 | 0.0433 | 103
OR4C6 (olfactory receptor family 4 subfamily C member 6) | 4 | 0.247 | 47.5
CLEC4M (C-type lectin domain family 4 member M) | 1 | -0.371 | 77.9
CLEC4M (C-type lectin domain family 4 member M) | 2 | -0.0272 | 82.7
CLEC4M (C-type lectin domain family 4 member M) | 3 | -0.288 | 62.9
CLEC4M (C-type lectin domain family 4 member M) | 4 | 0.324 | 41.6
CASP6 (caspase 6) | 1 | 0.204 | 74.3
CASP6 (caspase 6) | 2 | 0.184 | 29
CASP6 (caspase 6) | 3 | -0.216 | 91.1
CASP6 (caspase 6) | 4 | -0.212 | 77.7
IL21R (interleukin 21 receptor) | 1 | -0.282 | 30.6
IL21R (interleukin 21 receptor) | 2 | 0.296 | 64.5
IL21R (interleukin 21 receptor) | 3 | 0.201 | 93.6
IL21R (interleukin 21 receptor) | 4 | -0.0941 | 93.2
BTN2A3P (butyrophilin subfamily 2 member A3, pseudogene) | 1 | 0.232 | 78.6
BTN2A3P (butyrophilin subfamily 2 member A3, pseudogene) | 2 | -0.259 | 75.8
BTN2A3P (butyrophilin subfamily 2 member A3, pseudogene) | 3 | 0.0613 | 86.7
BTN2A3P (butyrophilin subfamily 2 member A3, pseudogene) | 4 | -0.0948 | 94.3
BRMS1L (BRMS1 like transcriptional repressor) | 1 | -0.0327 | 42.8
BRMS1L (BRMS1 like transcriptional repressor) | 2 | -0.318 | 88.7
BRMS1L (BRMS1 like transcriptional repressor) | 3 | 0.102 | 44.3
BRMS1L (BRMS1 like transcriptional repressor) | 4 | -0.286 | 100
FKBP10 (FKBP prolyl isomerase 10) | 1 | -0.218 | 115
FKBP10 (FKBP prolyl isomerase 10) | 2 | -0.407 | 29.9
FKBP10 (FKBP prolyl isomerase 10) | 3 | -0.355 | 55.6
FKBP10 (FKBP prolyl isomerase 10) | 4 | -0.486 | 80.4
NMBR (neuromedin B receptor) | 1 | 0.00467 | 45.5
NMBR (neuromedin B receptor) | 2 | 0.0933 | 61.6
NMBR (neuromedin B receptor) | 3 | -0.241 | 52.1
NMBR (neuromedin B receptor) | 4 | -0.293 | 78.8
IER3 (immediate early response 3) | 1 | -0.303 | 62.7
IER3 (immediate early response 3) | 2 | -0.13 | 88.5
IER3 (immediate early response 3) | 3 | -0.178 | 60.5
IER3 (immediate early response 3) | 4 | -0.398 | 85.4
IKBKG | 1 | -0.285 | 105
IKBKG | 2 | 0.358 | 26.5
IKBKG | 3 | -0.0054 | 82.2
IKBKG | 4 | -0.731 | 87.7

Part of the list above, reformatted.
NOTCH2 (notch receptor 2) #3
- log2 vehicle/camptothecin viability: -0.0927
- viability with camptothecin (% of control): 109

NOTCH2 (notch receptor 2) #4
- log2 vehicle/camptothecin viability: -0.245
- viability with camptothecin (% of control): 66.9

OR10A4 (olfactory receptor family 10 subfamily A member 4) #1
- log2 vehicle/camptothecin viability: 0.376
- viability with camptothecin (% of control): 42.1

OR10A4 (olfactory receptor family 10 subfamily A member 4) #2
- log2 vehicle/camptothecin viability: -0.152
- viability with camptothecin (% of control): 63.9

OR10A4 (olfactory receptor family 10 subfamily A member 4) #3
- log2 vehicle/camptothecin viability: 0.65
- viability with camptothecin (% of control): 33.4
